Test results: patent US20090221433A1, “SMALL MOLECULE PRINTING” (priority 2006, published 2009)
For some of these results: At least one compound was matched to its structure with a doubt left. Some results were stated once for a whole list of compounds, not compound by compound.

Experiments:
[1] = tested on: Alexa Fluor 647 goat-anti-rabbit IgG; assay: Bioactive microarray control, labeled secondary antibody alone; format: binding; settings: in at least one experiment
Procedure: (§1) To investigate the suitability of our approach for printing compounds that have not been intentionally synthesized with appendages for covalent capture, more than 300 commercially available bioactive compounds were printed onto isocyanate-functionalized slides. We screened these bioactive microarrays using rabbit primary antibodies against corticosterone, digitoxin, and 17β-estradiol, followed by a fluor-labeled goat anti-rabbit secondary antibody. The signal-to-noise ratio (SNR) was determined by calculating intensity at 635 nm and adjusting for local background for each feature on replicate arrays, and data were compared to replicate control arrays incubated with the labeled secondary antibody alone (FIG. 4). Six bioactives, with signal-to-noise ratios>3.0, were found in replicate arrays to bind to the labeled polyclonal secondary antibody alone. None of the compounds were autofluorescent at 635 nm as judged by arrays probed with PBS buffer alone (data not shown). Hygromycin B, an aminoglycoside antibiotic, gave the highest adjusted signal-to-noise ratio (mean SNR 47.6). […] In the anti-corticosterone antibody binding profile, hydrocortisone (mean SNR 68.9), beclomethasone (63.3), and corticosterone (59.2), corticosteroids related in structure, scored as positives. […] 17β-estradiol (mean SNR 9.0), estriol (8.7) and estrone (7.3), primary estrogenic hormones varying in the number of reactive groups for capture, scored as positives in the anti-17β-estradiol binding profile.
Small-molecule microarray profiles with antibodies against natural products. Microarrays printed with natural products and bioactives were incubated with various antibodies to detect specific compounds. […] Arrays were dried by centrifugation and scanned for fluorescence at 635 nm. Signal-to-noise ratio was calculated for each feature using adjusted diameters.

[2] = tested on: anti-17β-estradiol antibody; assay: Bioactive microarray binding profile, anti-17β-estradiol antibody; parameters: species or system rabbit; settings: anti-17β-estradiol then labeled secondary antibody; replicate arrays
Procedure: as §1, with “4).” for “4). Six bioactives, with signal-to-noise ratios>3.0, were found in replicate arrays to bind to the labeled polyclonal secondary antibody alone. None of the compounds were autofluorescent at 635 nm as judged by arrays probed with PBS buffer alone (data not shown). Hygromycin B, an aminoglycoside antibiotic, gave the highest adjusted signal-to-noise ratio (mean SNR 47.6).”
Small-molecule microarray profiles with antibodies against natural products. […] Arrays were dried by centrifugation and scanned for fluorescence at 635 nm. Signal-to-noise ratio was calculated for each feature using adjusted diameters.

**Q.** Which “mean adjusted fluorescent intensities” value [1] does the source give for CCn1cc(C(=O)O)c(=O)c2cnc(N3CCNCC3)nc21 [pipemidic acid] here?
**A.** > 3.0

**Q.** C[C@]12CC[C@@H]3c4ccc(O)cc4CC[C@H]3[C@@H]1CCC2=O [estrone] was tested. Which “mean SNR (signal-to-noise ratio at 635 nm)” value [2] did it give?
**A.** 7.3

**Q.** Which “mean adjusted fluorescent intensities” value [1] does the source give for CCn1cc(C(=O)O)c(=O)c2cc(F)c(N3CCNCC3)cc21 [norfloxacin] here?
**A.** > 3.0

**Q.** For O=C(O)c1cn(C2CC2)c2cc(N3CCNCC3)c(F)cc2c1=O [ciprofloxacin], which “mean adjusted fluorescent intensities” value [1] is on record?
**A.** > 3.0
